The record followed here is PubChem BioAssay AID1307 (SRMLSC, 2008).

Fewer than 10 of roughly 1,200 compounds were called active.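 How the source made its calls: active means inhibition reaching a set limit at one or more tested concentrations; inactive means inhibition under that limit at every dose.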 This is one part of the list. Results with a measured potency or affinity are listed apart.

The assay in a line: yeast RAM network inhibitors, dose response, S. cerevisiae (AID 1307).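 Further: 0% = DMSO vehicle wells and 100% = 10 µM 1-NA-PP1 control; higher inhibition means more yeast growth since RAM block rescues cells from 5-FOA.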 The conditions noted are these: S. cerevisiae RAM network URA3 reporter, 5-FOA growth OD615, active compounds read high, yeast express analog-sensitive mutant Cbk1 kinase; at 100 µM unless noted.
Take `COc1cccc(-c2nnc(SCC(=O)Nc3ccc(OC)c(OC)c3)n2N)c1`: the max inhibition was inactive: 6.24%.
For `CCC(=O)Oc1ccc(C(=O)Nc2cccc(C(=O)c3ccccc3)c2)cc1` the value was inactive: 3.36% [at 0.196 µM].
Regarding `Cc1oc(-c2cc(Cl)cc(Cl)c2)cc1C(=O)NCCc1ccccc1`, the max inhibition was inactive: 4.69% [at 50 µM].
For `CC(C)OC(=O)c1ccc(COC(=O)c2cccc(-c3nnc(-c4ccccc4)o3)c2)cc1` the value was inactive: 3.36% [at 25 µM]; for `CN(C)S(=O)(=O)c1ccc2[nH]cc(/C=C/c3nc4ccccc4c(=O)n3-c3ccccc3)c2c1`, inactive: 10.9%; for `CCOC(=O)CSc1nc2ccccc2c(=O)n1C1CCCC1`, inactive: 2.91% [at 12.5 µM].
Consider `CCCCCc1c2c(cc(O)c1C(=O)O)OC(=O)c1c(cc(OC)cc1C(=O)CCCC)O2`, for which the max inhibition was inactive: 6.94%.
In the case of `COc1ccc(CC(=O)Nc2cc3oc4ccccc4c3cc2OC)cc1`, the max inhibition is inactive: 3.11% [at 1.563 µM].
The figure for `O=C(CSc1nc2cc(Cl)ccc2s1)N1CCCc2ccccc21` is inactive: 2.81%.
On to `O=C(CNC(=S)N(Cc1ccccc1)Cc1ccccc1F)NCCc1ccc(Cl)cc1`, for which the max inhibition was inactive: 3.65%.
For `CCOc1ccccc1NC(=O)c1ccccc1-c1nc(-c2ccccc2)no1` the value was inactive: 8.12%; for `COc1ccc(N(CC(=O)NCc2ccc(C)cc2)S(=O)(=O)c2c(C)nn(C)c2C)cc1`, inactive: 4.1%; for `Cc1ccc(NC(=O)COc2ccc(CCO)cc2-n2nc3ccccc3n2)cc1C`, inactive: 11.1%.
The figure for `O=C(COC(=O)c1ccccc1Nc1ccc(SC(F)F)cc1)NC1CC1` is inactive: 9.6%; for `O=[N+]([O-])c1ccc2oc(-c3cccc(O)c3)nc2c1` it is inactive: 9.8%; for `CCC(C)NS(=O)(=O)c1ccc(S(=O)(=O)N(CCc2ccc(OC)c(OC)c2)Cc2cccs2)cc1` (centres undefined) it is inactive: 1.46% [at 3.125 µM].
The figure for `COc1ccc(N(CC(=O)NCCSCc2ccco2)S(=O)(=O)c2ccc(C)cc2)cc1` is inactive: 4.74% [at 50 µM].
Take `Cc1ccc(-c2cccc(OC(=O)c3ccccc3F)c2)cc1`: the max inhibition was inactive: 2.7% [at 6.25 µM].
Turning to `N#C/C(=C\c1cn(CCOc2ccccc2)c2ccccc12)C(=O)NCC1CCCO1` (centres undefined), the max inhibition was inactive: 2.19% [at 0.196 µM].
For `CCN(CC)S(=O)(=O)c1ccc(NC(=O)COC(=O)c2ccc(Br)o2)cc1` the value was inactive: 3.64% [at 50 µM].
For `CCCCc1ccc(/C=C2\C(=O)c3ccccc3C(O)=C2C(=O)OCC)cc1` the value was inactive: 7.44%; for `COc1ccc(S(=O)(=O)N(Cc2ccccc2)Cc2nc(-c3ccccc3)no2)cc1`, inactive: 1.63% [at 25 µM].
The figure for `CN(C)S(=O)(=O)c1cc(NC(=O)COC(=O)Cc2ccc(Br)cc2)ccc1Cl` is inactive: 1.06%; for `CCCCn1c(=O)c(CCC(=O)OC(C)C(=O)Nc2cccc(Cl)c2Cl)nc2ccccc21` (centres undefined) it is inactive: 1.43% [at 6.25 µM]; for `O=C(CN(Cc1cccs1)S(=O)(=O)c1ccc(S(=O)(=O)NC2CCCCC2)cc1)Nc1ccccc1` it is inactive: 3.89% [at 0.196 µM].
Take `Cc1ccc(Cl)cc1N1CCN(S(=O)(=O)c2ccc3[nH]c(=O)c(=O)[nH]c3c2)CC1`: the max inhibition is inactive: 4.39%.
Turning to `COc1ccccc1NC(=O)c1ccc(NC(=O)COC(=O)CCC2CCCC2)cc1`, the max inhibition was inactive: 3.54%.
With `COc1ccccc1-c1nc(C#N)c(N2CCC(Cc3ccccc3)CC2)o1`, the max inhibition is inactive: 5.54%.
In the case of `COc1ccc(-c2nnc(SC(C)C(=O)Nc3cccc(Cl)c3)o2)cc1` (centres undefined), the max inhibition was inactive: 1.74% [at 25 µM].
The figure for `CO/N=C/C(=N\Nc1ccc(OC)cc1)C(=O)c1ccc(OC)cc1` is inactive: 3.18%; for `CCOc1ccc2nc(SCCNS(=O)(=O)c3ccccc3)sc2c1` it is inactive: 2.88% [at 50 µM].
For `O=C(OC(c1ccc(NS(=O)(=O)c2ccccc2)cc1)(C(F)(F)F)C(F)(F)F)c1ccccc1` the value was inactive: 2.02% [at 0.196 µM]; for `COc1ccc(NC(=O)c2sccc2SCc2cccc(C(F)(F)F)c2)cc1`, inactive: 2.59%.
The figure for `O=C(NCCn1cc(SCc2ccc(F)cc2)c2ccccc21)c1ccccc1F` is inactive: 1.78% [at 1.563 µM]; for `N#Cc1nc(COc2ccccc2)oc1N1CCN(c2cccc(Cl)c2)CC1` it is inactive: 3.36% [at 50 µM]; for `O=C(/C=C/c1cccc([N+](=O)[O-])c1)NCCSCc1cccc(Cl)c1` it is inactive: 1.76%.
For the molecule `COc1ccc(S(=O)(=O)NCCSCc2cccc(C)c2)cc1Br`, the max inhibition was inactive: 1.08% [at 50 µM].
`COc1ccc(-c2ccc(-c3noc(C(C)C)n3)c(OC)n2)cc1`: the max inhibition is inactive: 3.31%.
For `Cc1c(NC(=S)NC(=O)Cc2ccccc2)cccc1C(=O)O` the value was inactive: 2.43% [at 0.196 µM].
Take `CCN(CC)S(=O)(=O)c1cccc(-c2nnc(SCCCC(=O)c3ccc(F)cc3)o2)c1`: the max inhibition was inactive: 1.47% [at 0.782 µM].
The figure for `CCOC(=O)c1ccc(COC(=O)c2ccc3c(c2)-c2ccccc2C3=O)cc1` is inactive: 5.23% [at 25 µM].
The figure for `Cc1ccc(S(=O)(=O)c2c(C)cc(C)nc2Oc2cccc(C(F)(F)F)c2)cc1` is inactive: 2.36%; for `CCOC(=O)C(C)(C)Sc1nc2c(cnn2-c2ccc(Cl)cc2)c(=O)[nH]1` it is inactive: 4.04%; for `CC(C)OC(=O)CC(=O)CSc1nc(-c2ccc(F)cc2)cc(-c2ccccc2)c1C#N` it is inactive: 4.57%.
For `C/C(=N\NC(=S)NCc1ccccc1)c1ccc(C(C)(C)C)cc1` the value was inactive: 4.82%; for `O=C(COc1ccc2c(c1)C(=O)CC1(CCCCC1)O2)NCc1ccccc1`, inactive: 5.43%.
On to `COC(=O)c1ccc(Cl)cc1NC(=O)/C=C/c1ccc(C)o1`, for which the max inhibition is inactive: 4.37% [at 12.5 µM].
For `COc1ccc(N(C)S(=O)(=O)c2cccc(C(=O)NCC3CCCCC3)c2)cc1`, the max inhibition is inactive: 2.31% [at 1.563 µM].
On to `COc1ccc(Oc2ccc(/C=C/C(=O)c3cccc(OC)c3)cc2[N+](=O)[O-])cc1`, for which the max inhibition was inactive: 2.94% [at 12.5 µM].
On to `Cc1ccc(-c2ccc(C(=O)NCc3ccccc3)o2)c2ccccc12`, for which the max inhibition was inactive: 3.65%.
For `CCOC(=O)c1cnc(-c2ccccc2)nc1Oc1ccc(Cl)cc1` the value was inactive: 3.29%.
Regarding `Fc1ccc(-n2c(Cc3ccccc3)nnc2SCc2nc(-c3ccc(Cl)cc3)no2)cc1`, the max inhibition is inactive: 1.4% [at 25 µM].
The figure for `O=C(CSc1nc(-c2ccccc2)cs1)Nc1cccc([N+](=O)[O-])c1` is inactive: 4.65% [at 25 µM]; for `CCCn1c(=O)c(C(=O)Nc2ccccc2C(=O)OC)c(O)c2ccccc21` it is inactive: 2.56% [at 1.563 µM]; for `CC(NC(=O)COC(=O)/C(=C/c1cccs1)c1cccs1)c1ccccc1` (centres undefined) it is inactive: 3.34% [at 1.563 µM].
For `COc1ccccc1-c1ccc(/C=C2/C=C(CC(C)C)OC2=O)o1` the value was inactive: 4.92%.
For `O=C(CNS(=O)(=O)c1ccc2ccccc2c1)OCc1csc(-c2ccccc2)n1` the value was inactive: 4.7% [at 0.782 µM]; for `CCCOc1ccc(-c2nn(-c3ccccc3)cc2/C=C2\SC(N)=NC2=O)cc1C`, inactive: 16.7%; for `CSc1ccc(Cl)c(C(=O)NCCOc2cc(C)ccc2C(C)C)c1`, inactive: 2.43% [at 50 µM].
In the case of `Cc1ccc(NC(=O)c2ccccc2F)cc1S(=O)(=O)N1CCCCCC1`, the max inhibition was inactive: 0.96% [at 3.125 µM].
Regarding `CC(C)N(Cc1nc(-c2ccc(Cl)cc2)no1)C(=O)/C=C/c1ccccc1`, the max inhibition is inactive: 2.58% [at 6.25 µM].
The figure for `CCOC(=O)C1CCN(S(=O)(=O)C(F)(F)c2nc3ccccc3s2)CC1` is inactive: 2.1% [at 0.391 µM]; for `N#Cc1nc(COc2cccc(Cl)c2)oc1N1CCN(c2ccccc2)CC1` it is inactive: 4.45%; for `O=c1c(-c2nnc(SCc3ccc(Cl)cc3Cl)o2)cccn1Cc1ccccc1` it is inactive: 1.93% [at 12.5 µM].
The figure for `Cc1ccc(CSc2nnc(-c3ccc4c(c3)OCO4)o2)cc1` is inactive: 3.72% [at 1.563 µM].
The figure for `CCN=C1S/C(=C\c2cc(OCC)c(O)cc2Br)C(=O)N1CC` is inactive: 11.8%; for `Cc1ccc(N=C(NOCc2ccc(Cl)cc2Cl)c2nonc2N)c(C)c1` it is inactive: 5.27%.
`CC1CCc2c(sc3nc(CSc4n[nH]c(N)n4)[nH]c(=O)c23)C1` (centres undefined): the max inhibition was inactive: 5.55% [at 0.782 µM].
On to `Cc1ccc(C(=O)O/N=C\c2ccc(N3CCCCC3)c([N+](=O)[O-])c2)cc1`, for which the max inhibition was inactive: 2.11%.
Consider `COc1ccc(C2CC(c3ccccc3)=NN2c2ccc(/C=N/NC(=O)c3ccncc3)cc2)cc1` (centres undefined), for which the max inhibition is inactive: 9.95%.
The figure for `O=C(OCC#CCSc1nnc(-c2ccc(Br)cc2)o1)c1cccs1` is inactive: 3.16% [at 12.5 µM]; for `Cc1ccc(-n2ncc3c(SCc4ccccc4)ncnc32)cc1` it is inactive: 4.44% [at 50 µM]; for `CCC(C)N1C(=O)/C(=C/c2c(NCCCOC(C)C)nc3c(C)cccn3c2=O)SC1=S` (centres undefined) it is inactive: 2.83%.
For `Cc1cccc(C)c1OC1(c2ccccc2)OC(=O)c2ccccc21` (centres undefined) the value was inactive: 2.48%.
With `CCCOC(=O)c1ccc(Oc2c(-c3ccc(OCC)cc3O)n[nH]c2C)cc1`, the max inhibition is inactive: 6.49%.
The figure for `CCOC(=O)CCCSc1nnc(CCCCCN2C(=O)c3cccc4cccc(c34)C2=O)o1` is inactive: 1.53% [at 0.391 µM]; for `O=C(C1CC1)N1CCc2cc(S(=O)(=O)NCCC3=CCCCC3)ccc21` it is inactive: 2.7% [at 0.782 µM]; for `Cc1cc(C(=O)CCl)c(C)n1CCc1ccc(Cl)cc1` it is inactive: 5.29% [at 50 µM].
As to `COc1ccc(Cc2nc(-c3ccc(-n4cccc4)cc3)no2)cc1OC`, the max inhibition was inactive: 5.67%.
